The target in experiment [1] is OsTAA1 Transcription Inhibition Factor 1 (OsTIF1), yeast two-hybrid fusion (rice (Oryza sativa)). The experiment in a line: two-hybrid; pGAD7 prey and pGBK7 bait constructs co-transformed into yeast AH109; growth on SD-Leu-Trp-His, SD-Leu-Trp as control; also with IAA, which inhibited the OsAsp1-OsTIF1 interaction.
Experiment [2] deals with OsTIF1-HA (rice (Oryza sativa)). The experiment in a line: co-IP; OsTIF1-HA co-transformed with OsAsp1-GFP or GFP into rice mesophyll protoplasts, with or without 50 uM IAA for 16 h; OsTIF1-HA as bait, antibody-bound Dynabeads Protein A or G, blot with GFP antibody; interaction depressed with IAA.

Results are given in words; binding and its absence hold for the method and conditions named. Binding can be weak; no strength is given. Sequences can lack the tags named with a protein. For some assays here: Binding seen in cells or lysates may run through a third protein.

B1: Aspartic Protease 1 (OsAsp1), yeast two-hybrid fusion (protein, UniProt Q0IU52 1-410)
chain: MTARLALLASLLLLLQLVPPSSAVVLELHGNVYPIGHFFITMNIGDPAKSYFLDIDTGSTLTWLQCDAPCTNCNIVPHVLYKPTPKKLVTCADSLCTDLYTDLGKPKRCGSQKQCDYVIQYVDSSSMGVLVIDRFSLSASNGTNPTTIAFGCGYDQGKKNRNVPIPVDSILGLSRGKVTLLSQLKSQGVITKHVLGHCISSKGGGFLFFGDAQVPTSGVTWTPMNREHKYYSPGHGTLHFDSNSKAISAAPMAVIFDSGATYTYFAAQPYQATLSVVKSTLNSECKFLTEVTEKDRALTVCWKGKDKIVTIDEVKKCFRSLSLEFADGDKKATLEIPPEHYLIISQEGHVCLGILDGSKEHLSLAGTNLIGGITMLDQMVIYDSERSLLGWVNYQCDRIPRSESAITSRL
As to B1, in experiment [1], the binding result is reported as “binds”.

B2: OsAsp1-GFP (protein, UniProt Q0IU52 47-410)
chain: PAKSYFLDIDTGSTLTWLQCDAPCTNCNIVPHVLYKPTPKKLVTCADSLCTDLYTDLGKPKRCGSQKQCDYVIQYVDSSSMGVLVIDRFSLSASNGTNPTTIAFGCGYDQGKKNRNVPIPVDSILGLSRGKVTLLSQLKSQGVITKHVLGHCISSKGGGFLFFGDAQVPTSGVTWTPMNREHKYYSPGHGTLHFDSNSKAISAAPMAVIFDSGATYTYFAAQPYQATLSVVKSTLNSECKFLTEVTEKDRALTVCWKGKDKIVTIDEVKKCFRSLSLEFADGDKKATLEIPPEHYLIISQEGHVCLGILDGSKEHLSLAGTNLIGGITMLDQMVIYDSERSLLGWVNYQCDRIPRSESAITSRL
B2: the binding result in experiment [2] was “binds”.

(Values after PMC7647119.)
